Source: PubChem BioAssay AID743454 (Peter MacCallum Cancer Centre, 2014)

Screen: 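Knock-downs lowering viability or raising caspase 3/7 activity in vorinostat-treated resistant cells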 (primary screen)
Cells: human HCT116-VR colon cancer cells, selected for vorinostat resistance
Knock-down reagent: siRNA pool against human genes, 40 nM siRNA pool
Time to read-out: vorinostat for 24 h, read-out about 72 h after transfection
Challenge: vorinostat at 2.5 µM final
Measured: 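Cell viability by CellTiter-Fluor and caspase 3/7 activity by luminescence, each scaled to mock wells per plate, duplicates averaged, then robust z-scored over all plates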
Reading the numbers: viability robust z-score: higher = more viable cells than screen typical; caspase robust z-score: higher = more caspase 3/7 activity than screen typical
Active means: 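a knock-down is a hit when classed RV1 or RV2 for lowered viability, or CA1 or CA2 for caspase activation; those lethal without drug were dropped; hits were retested singly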
Here is a random part of about 18,000 reagents tested. In the full data, 450 (2.5%) are marked active. 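Single biological run; no consistent viability z cut-off exists, so the class columns, not z-scores, define the calls.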

What did the screen give for CSTF2?
viability hit class: no change; caspase hit class: no change; viability robust z-score: 0.45; caspase robust z-score: -1.19; Outcome: inactive

With VAV1, how do the results read?
viability hit class: no change; caspase hit class: no change; viability robust z-score: 0.22; caspase robust z-score: -0.9; Outcome: inactive

With CDK2AP1, what does the deposit list?
viability hit class: no change; caspase hit class: no change; viability robust z-score: -0.82; caspase robust z-score: 0.05; Outcome: inactive

With DHDDS, what was measured?
viability hit class: no change; caspase hit class: no change; viability robust z-score: 1.11; caspase robust z-score: 1; Outcome: inactive

Which result is listed for FXYD5?
viability hit class: no change; caspase hit class: no change; viability robust z-score: 0.73; caspase robust z-score: 3.26; Outcome: inactive

How did the screen score DLG2?
viability hit class: no change; caspase hit class: no change; viability robust z-score: 0.39; caspase robust z-score: -0.44; Outcome: inactive

For PPP2R3B, what does the deposit list?
viability hit class: no change; caspase hit class: no change; viability robust z-score: -3.75; caspase robust z-score: -1.18; Outcome: inactive

What did the screen give for TAC1?
viability hit class: no change; caspase hit class: no change; viability robust z-score: -0.46; caspase robust z-score: 1.06; Outcome: inactive

What did the screen give for SPATA31E1?
viability hit class: no change; caspase hit class: no change; viability robust z-score: 0.07; caspase robust z-score: 1.88; Outcome: inactive

With TBC1D9, how do the results read?
viability hit class: no change; caspase hit class: no change; viability robust z-score: 0.76; caspase robust z-score: 3.02; Outcome: inactive

With HEPH, what does the deposit list?
viability hit class: no change; caspase hit class: no change; viability robust z-score: 1.01; caspase robust z-score: -0.38; Outcome: inactive

For KLF7, what does the deposit list?
viability hit class: no change; caspase hit class: no change; viability robust z-score: -0.31; caspase robust z-score: 3.92; Outcome: inactive

For ARL4A, what was measured?
viability hit class: no change; caspase hit class: no change; viability robust z-score: 0.48; caspase robust z-score: 1.88; Outcome: inactive

For LEP, what does the deposit list?
viability hit class: no change; caspase hit class: no change; viability robust z-score: 1.31; caspase robust z-score: -0.74; Outcome: inactive

2 entries from above, reformatted:
{"gene symbol": "KLF7", "viability hit class": "no change", "caspase hit class": "no change", "viability robust z-score": -0.31, "caspase robust z-score": 3.92, "Outcome": "inactive"}
{"gene symbol": "ARL4A", "viability hit class": "no change", "caspase hit class": "no change", "viability robust z-score": 0.48, "caspase robust z-score": 1.88, "Outcome": "inactive"}
